PubChem BioAssay AID1259331, Drosophila RNAi Screening Center | 2017
Here is a random part of about 3,100 reagents tested. 126 of them (4.1%) count as active. 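Calls are per reagent; zinc was so toxic that few knock-downs lowered ATP further, so most hits raise ATP.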 Raw values are not corrected between plates. A plus sign joins genes that one reagent is predicted to hit. Not given: the amount of reagent.

Purpose: 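Knock-downs that alter ATP level after a high zinc chloride dose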 (primary screen)
Cells: Drosophila S2R+ cells
Reagent: long dsRNA against Drosophila genes
Time to read-out: 5 days (4 days knock-down, then 1 day zinc)
Conditions: zinc chloride at 15 mM final level for 1 day
Read-out: 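Luminescent ATP assay standing in for viability; Z score is the mean over three replicate plates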
Reading the numbers: mean Z score: higher = more ATP than other wells, better survival under zinc; ATP luminescence: higher = more ATP, more viable cells
Rule for the call: 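Hit when the absolute Z score is greater than 1.5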
Meaning of the calls: active = hit, ATP up or down; inactive = not a hit

mean Z score	ATP luminescence, replicate 1	ATP luminescence, replicate 2	Outcome	gene knocked down	amplicon
-0.255	60323	63359	inactive	CG1924	DRSC19823
0.142	60207	67030	inactive	CG1924	DRSC24870
-0.195	50748	56345	inactive	kon (kon-tiki)	DRSC02033
-0.153	62381	56256	inactive	kon (kon-tiki)	DRSC39622
1.07	58128	55899	inactive	CG11703	DRSC14356
-0.371	57460	47343	inactive	CG11703	DRSC26507
-0.408	24765	31245	inactive	SERCA (Sarco/endoplasmic reticulum Ca(2+)-ATPase)	DRSC04600
0.583	55350	61504	inactive	SERCA (Sarco/endoplasmic reticulum Ca(2+)-ATPase)	DRSC26195
0.346	34330	62604	inactive	SdhCL (Succinate dehydrogenase, subunit C-like)	DRSC16078
-0.137	53841	61539	inactive	SdhCL (Succinate dehydrogenase, subunit C-like)	DRSC39758
-0.0155	76479	61524	inactive	Gr97a (Gustatory receptor 97a)	DRSC13802
-0.177	51008	40845	inactive	Or30a (Odorant receptor 30a)	DRSC03385
-0.612	55199	53346	inactive	Or30a (Odorant receptor 30a)	DRSC39556
-0.436	78366	63633	inactive	otk (off-track)	DRSC07658
-0.109	58594	60855	inactive	otk (off-track)	DRSC29192
-0.178	47274	45423	inactive	otk (off-track)	DRSC36649
0.0264	47360	43399	inactive	otk (off-track)	DRSC36650
-0.237	35925	53687	inactive	Or85a (Odorant receptor 85a)	DRSC16764
-0.241	68881	66943	inactive	CG8468	DRSC07190
0.261	57768	56619	inactive	CG8468	DRSC26347
0.602	75295	76788	inactive	ATPsynbeta (ATP synthase, beta subunit)	DRSC17194
0.0439	35578	58471	inactive	CG45049	DRSC16163
-0.176	44480	48543	inactive	CG45049	DRSC23175
0.22	82554	63084	inactive	Tmc (Transmembrane channel-like)	DRSC10356
-0.0589	43674	40348	inactive	CG3625	DRSC00008
1.04	68469	73460	inactive	CG3625	DRSC00621
2.33	1.17e5	1.12e5	active	Tsp42Ee (Tetraspanin 42Ee)	DRSC05947
-0.429	46160	63564	inactive	Tsp42Ee (Tetraspanin 42Ee)	DRSC29024
-0.951	48886	51718	inactive	CG34435	DRSC18086
0.162	55459	51561	inactive	CG34435	DRSC39470
-0.484	35925	50721	inactive	fzo (fuzzy onions)	DRSC16954
0.0353	57139	64233	inactive	fzo (fuzzy onions)	DRSC39864
0.319	75587	66994	inactive	Osi23 (Osiris 23)	DRSC15074

The list goes on, starting with the last 9 of the part before.
mean Z score	ATP luminescence, replicate 1	ATP luminescence, replicate 2	Outcome	gene knocked down	amplicon
-0.0589	43674	40348	inactive	CG3625	DRSC00008
1.04	68469	73460	inactive	CG3625	DRSC00621
2.33	1.17e5	1.12e5	active	Tsp42Ee (Tetraspanin 42Ee)	DRSC05947
-0.429	46160	63564	inactive	Tsp42Ee (Tetraspanin 42Ee)	DRSC29024
-0.951	48886	51718	inactive	CG34435	DRSC18086
0.162	55459	51561	inactive	CG34435	DRSC39470
-0.484	35925	50721	inactive	fzo (fuzzy onions)	DRSC16954
0.0353	57139	64233	inactive	fzo (fuzzy onions)	DRSC39864
0.319	75587	66994	inactive	Osi23 (Osiris 23)	DRSC15074
-0.357	39422	54990	inactive	CG10019	DRSC24959
-0.0678	39182	50748	inactive	CG31663	DRSC00078
0.832	69773	66034	inactive	CG31663	DRSC00389
-0.348	41188	36507	inactive	CG31663	DRSC00390
-0.19	43691	42645	inactive	CG31663	DRSC00393
-0.00783	61401	74558	inactive	CG44247 + veg (retired record)	DRSC07714
-0.0847	71968	58145	inactive	Dic4	DRSC10317
-0.295	42645	37188	inactive	CG16700	DRSC19755
-0.683	49092	48166	inactive	CG16700	DRSC39560
0.00783	44480	64439	inactive	S (Star)	DRSC24973
-0.0546	55788	41874	inactive	S (Star)	DRSC39484
-0.381	39010	38530	inactive	dpy (dumpy)	DRSC00233
-0.0878	43194	43194	inactive	dpy (dumpy)	DRSC00234
0.00497	50309	41342	inactive	dpy (dumpy)	DRSC00472
-0.721	53970	54236	inactive	CG14439	DRSC17931
-0.437	58557	52671	inactive	CG14439	DRSC39551
0.047	42062	46644	inactive	Ir60d (Ionotropic receptor 60d)	DRSC04218
-0.697	62278	49501	inactive	nes (nessy)	DRSC11375
-0.118	63873	62433	inactive	nes (nessy)	DRSC39655
-0.0728	40999	42279	inactive	CG11566 (retired record) + stg1	DRSC20482
-0.276	35376	39318	inactive	CG11566 (retired record) + stg1	DRSC20483
2.34	70424	74181	active	CG14204	DRSC19559
0.571	53053	53155	inactive	CG14204	DRSC29941
2.13	85570	87080	active	CG8086	DRSC03078
0.193	48653	37810	inactive	CG8086	DRSC03079
-0.0267	59329	51441	inactive	CG8086	DRSC27677
-0.356	27405	28279	inactive	Pex23 (Peroxin 23)	DRSC10323
0.328	81590	67903	inactive	Pex23 (Peroxin 23)	DRSC10645
0.1	75741	49898	inactive	Pex23 (Peroxin 23)	DRSC28370
0.209	59706	58608	inactive	CG5850	DRSC02905
-0.31	44634	46228	inactive	CG5850	DRSC39491
-0.163	93678	71196	inactive	CG8026	DRSC07056
24.4	7.28e5	27953	active	CG11537	DRSC08200
0.0184	64276	52898	inactive	CG11537	DRSC39579
-0.171	57237	52168	inactive	Marf (Mitochondrial assembly regulatory factor)	DRSC28101
